Data as given in article doi:10.1101/806968.
These are yes or no findings as the source states them, for the method shown. Binding seen in cells or lysates may run through a third protein. These calls come from enrichment with a bait or labelling near it, and not all partners need be listed. No binding means not detected with the bait. Sequences can lack the tags named with a protein.

Protein sequences, listed by entry. Tags and fused reporters are not part of them. Lines headed by an entry give the natural chain unless they say otherwise; changes in a name come on top.
UniProt Q9VWS1: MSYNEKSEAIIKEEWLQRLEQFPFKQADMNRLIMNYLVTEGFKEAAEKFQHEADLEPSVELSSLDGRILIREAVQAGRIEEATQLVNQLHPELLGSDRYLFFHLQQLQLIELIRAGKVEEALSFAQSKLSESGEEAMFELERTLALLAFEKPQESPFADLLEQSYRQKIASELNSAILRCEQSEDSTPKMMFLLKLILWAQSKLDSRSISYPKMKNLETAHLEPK
UniProt Q9W2N5: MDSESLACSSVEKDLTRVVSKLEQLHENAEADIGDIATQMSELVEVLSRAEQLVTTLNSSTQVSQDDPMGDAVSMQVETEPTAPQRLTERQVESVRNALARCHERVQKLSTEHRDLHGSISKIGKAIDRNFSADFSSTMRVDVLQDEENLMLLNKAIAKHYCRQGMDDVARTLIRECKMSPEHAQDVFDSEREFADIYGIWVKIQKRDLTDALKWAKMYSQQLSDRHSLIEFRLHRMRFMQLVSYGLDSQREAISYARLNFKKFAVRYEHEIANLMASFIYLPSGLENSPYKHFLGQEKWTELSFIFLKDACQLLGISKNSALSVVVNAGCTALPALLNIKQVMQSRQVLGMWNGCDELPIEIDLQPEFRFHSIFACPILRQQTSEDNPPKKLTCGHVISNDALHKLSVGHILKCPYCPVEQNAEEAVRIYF
UniProt E2QCI6: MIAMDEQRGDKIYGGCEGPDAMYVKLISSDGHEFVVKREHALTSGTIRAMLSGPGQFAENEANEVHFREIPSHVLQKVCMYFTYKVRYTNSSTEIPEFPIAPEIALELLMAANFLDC
UniProt O77430: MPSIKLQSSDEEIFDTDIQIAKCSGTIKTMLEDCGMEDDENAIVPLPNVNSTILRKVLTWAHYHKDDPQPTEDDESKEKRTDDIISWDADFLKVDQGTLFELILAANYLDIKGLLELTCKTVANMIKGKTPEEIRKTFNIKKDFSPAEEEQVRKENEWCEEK

T1: Cup-GFP (Drosophila melanogaster) (UniProt Q9VMA3)
T1 sequence: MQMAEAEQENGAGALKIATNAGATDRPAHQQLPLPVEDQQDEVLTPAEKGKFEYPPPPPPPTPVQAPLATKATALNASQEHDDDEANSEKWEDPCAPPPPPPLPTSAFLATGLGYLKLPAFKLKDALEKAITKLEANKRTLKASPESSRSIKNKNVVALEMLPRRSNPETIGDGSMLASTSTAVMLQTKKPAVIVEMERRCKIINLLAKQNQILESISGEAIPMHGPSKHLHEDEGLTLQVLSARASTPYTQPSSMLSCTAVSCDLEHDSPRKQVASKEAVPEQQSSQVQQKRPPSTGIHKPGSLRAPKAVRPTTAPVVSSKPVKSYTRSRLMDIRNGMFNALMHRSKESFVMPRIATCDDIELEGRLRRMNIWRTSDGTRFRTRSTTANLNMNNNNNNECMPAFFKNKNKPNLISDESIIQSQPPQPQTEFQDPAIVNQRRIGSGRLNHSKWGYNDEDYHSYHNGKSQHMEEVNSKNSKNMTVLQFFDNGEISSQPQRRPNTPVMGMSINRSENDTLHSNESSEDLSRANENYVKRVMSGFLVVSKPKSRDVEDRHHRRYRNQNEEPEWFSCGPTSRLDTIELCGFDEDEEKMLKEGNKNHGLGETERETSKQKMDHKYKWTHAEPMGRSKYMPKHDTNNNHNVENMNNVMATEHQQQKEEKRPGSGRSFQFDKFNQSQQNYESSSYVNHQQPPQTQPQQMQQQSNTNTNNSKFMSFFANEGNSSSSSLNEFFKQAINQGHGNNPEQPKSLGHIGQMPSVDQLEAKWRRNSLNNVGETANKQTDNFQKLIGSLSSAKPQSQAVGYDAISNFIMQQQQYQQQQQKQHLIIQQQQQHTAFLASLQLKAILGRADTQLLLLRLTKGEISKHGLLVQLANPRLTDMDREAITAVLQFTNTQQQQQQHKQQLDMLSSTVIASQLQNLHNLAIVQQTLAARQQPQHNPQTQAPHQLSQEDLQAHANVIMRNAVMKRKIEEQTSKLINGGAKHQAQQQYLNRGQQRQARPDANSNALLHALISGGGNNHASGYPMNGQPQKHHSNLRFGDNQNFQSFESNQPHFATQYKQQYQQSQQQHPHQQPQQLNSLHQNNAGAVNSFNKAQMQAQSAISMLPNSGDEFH

T2: ME31B-GFP (Drosophila melanogaster) (UniProt P23128)
T2 sequence: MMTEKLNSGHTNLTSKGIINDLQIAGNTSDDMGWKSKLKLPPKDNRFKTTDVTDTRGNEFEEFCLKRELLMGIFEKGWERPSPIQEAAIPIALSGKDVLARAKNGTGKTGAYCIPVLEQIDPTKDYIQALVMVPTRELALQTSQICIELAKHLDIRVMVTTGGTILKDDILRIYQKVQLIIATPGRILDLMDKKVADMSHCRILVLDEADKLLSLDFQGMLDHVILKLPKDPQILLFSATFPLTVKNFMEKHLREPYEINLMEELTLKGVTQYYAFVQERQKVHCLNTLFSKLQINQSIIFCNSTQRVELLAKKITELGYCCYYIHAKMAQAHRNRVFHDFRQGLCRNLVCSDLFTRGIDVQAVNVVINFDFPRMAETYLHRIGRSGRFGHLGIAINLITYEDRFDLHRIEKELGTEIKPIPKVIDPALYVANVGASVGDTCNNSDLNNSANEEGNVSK


How the values were obtained:
[1] = target: T1, Cup-GFP (Drosophila melanogaster); assay: affinity purification with mass spectrometry
[2] = target: T2, ME31B-GFP (Drosophila melanogaster); assay: affinity purification with mass spectrometry

Molecule | binding [1] | binding [2]
CG6617 (from UniProt Q9VWS1) | binds | binds
EloB | binds | binds
Muskelin | binds | binds
Slmb | binds | binds
Cup (protein, UniProt Q9VMA3 1-1117) MQMAEAEQENGAGALKIATNAGATDRPAHQQLPLPVEDQQDEVLTPAEKGKFEYPPPPPPPTPVQAPLATKATALNASQEHDDDEANSEKWEDPCAPPPPPPLPTSAFLATGLGYLKLPAFKLKDALEKAITKLEANKRTLKASPESSRSIKNKNVVALEMLPRRSNPETIGDGSMLASTSTAVMLQTKKPAVIVEMERRCKIINLLAKQNQILESISGEAIPMHGPSKHLHEDEGLTLQVLSARASTPYTQPSSMLSCTAVSCDLEHDSPRKQVASKEAVPEQQSSQVQQKRPPSTGIHKPGSLRAPKAVRPTTAPVVSSKPVKSYTRSRLMDIRNGMFNALMHRSKESFVMPRIATCDDIELEGRLRRMNIWRTSDGTRFRTRSTTANLNMNNNNNNECMPAFFKNKNKPNLISDESIIQSQPPQPQTEFQDPAIVNQRRIGSGRLNHSKWGYNDEDYHSYHNGKSQHMEEVNSKNSKNMTVLQFFDNGEISSQPQRRPNTPVMGMSINRSENDTLHSNESSEDLSRANENYVKRVMSGFLVVSKPKSRDVEDRHHRRYRNQNEEPEWFSCGPTSRLDTIELCGFDEDEEKMLKEGNKNHGLGETERETSKQKMDHKYKWTHAEPMGRSKYMPKHDTNNNHNVENMNNVMATEHQQQKEEKRPGSGRSFQFDKFNQSQQNYESSSYVNHQQPPQTQPQQMQQQSNTNTNNSKFMSFFANEGNSSSSSLNEFFKQAINQGHGNNPEQPKSLGHIGQMPSVDQLEAKWRRNSLNNVGETANKQTDNFQKLIGSLSSAKPQSQAVGYDAISNFIMQQQQYQQQQQKQHLIIQQQQQHTAFLASLQLKAILGRADTQLLLLRLTKGEISKHGLLVQLANPRLTDMDREAITAVLQFTNTQQQQQQHKQQLDMLSSTVIASQLQNLHNLAIVQQTLAARQQPQHNPQTQAPHQLSQEDLQAHANVIMRNAVMKRKIEEQTSKLINGGAKHQAQQQYLNRGQQRQARPDANSNALLHALISGGGNNHASGYPMNGQPQKHHSNLRFGDNQNFQSFESNQPHFATQYKQQYQQSQQQHPHQQPQQLNSLHQNNAGAVNSFNKAQMQAQSAISMLPNSGDEFH | – | binds
Gus (protein, UniProt A1Z6E0 1-279) MGQKISGGVKTVSRNDSQSTFKPIIPRELQADFVKPARIDILLDMPPASRDLQLKHSWNSEDRSLNIFVKEDDKLTFHRHPVAQSTDCIRGKVGLTKGLHIWEIYWPTRQRGTHAVVGVCTADAPLHSVGYQSLVGSTEQSWGWDLGRNKLYHDSKNCAGVTYPAILKNDEAFLVPDKFLVALDMDEGTLSFIVDQQYLGIAFRGLRGKKLYPIVSAVWGHCEITMRYIGGLDPEPLPLMDLCRRTIRQKIGRTNLEEHIQQLQLPLSMKTYLLYKNRR | binds | binds

The remaining lines, values ahead:

binding [1] | binding [2] | Molecule
binds | binds | CG3295 (from UniProt Q9W2N5)
binds | binds | EloC (from UniProt E2QCI6)
binds | binds | SkpA (from UniProt O77430 1-162)
no binding | no binding | CG7611 (protein, UniProt Q7K0L4 1-630) MQSTSSTSSGSCSRPLEGSTLNSGGSAENVARDGGSGDDSVGIGDENPSGSSAATNGHDSKHNGFIVNNNGSSSRIVDGENNRENTSCSGVQLDKSNQEIIRLIGQYLHDVGLDKSVQTLMLESGCYLEHPSATKFREHVLMGDWSKADSDLKDLEPLIDNGKLATITEMKFILLEQKYLEHLDDGNPLDALHVLRSELTPLQHNITRVHQLSSYMMCSTNQDLYQRAKWEGKGILSRALVMERLQTFMPPSVMMSPRRLRTLLQQAVELQSQHCPCHDMAWETNLETVSLLTDHCCTTDGFPMQTIQILTDHCDEVWFCKFSPDGLKLATGSKDSTVIIWDVDPYKLTLKHRRVLDGQAQLSVSFVSWSPDSKLILVGGTEDSHELYIWNVDDGKLVVKFSQSLEDSLACGAFSRDGARFVCGGQKGQLYLCDLNGTIVDSWEGVRVNSIAFRADNKTILAADNHYRIRGYNFDSPRSDFDILREPHPIMTFSINSADRLALLNVSNQGLHLWDIEDKCLVRRFQGIRQSNFAIHSCFGGVNESFVASGSEDKVVYIWHIKREEPLAKLAGHTKTVNCVSWNPVYPSLLASASDDATVRIWGPKPNGSSATTESDDCSSSSSSSSWNMT
binds | – | ME31B (protein, UniProt P23128 1-459) MMTEKLNSGHTNLTSKGIINDLQIAGNTSDDMGWKSKLKLPPKDNRFKTTDVTDTRGNEFEEFCLKRELLMGIFEKGWERPSPIQEAAIPIALSGKDVLARAKNGTGKTGAYCIPVLEQIDPTKDYIQALVMVPTRELALQTSQICIELAKHLDIRVMVTTGGTILKDDILRIYQKVQLIIATPGRILDLMDKKVADMSHCRILVLDEADKLLSLDFQGMLDHVILKLPKDPQILLFSATFPLTVKNFMEKHLREPYEINLMEELTLKGVTQYYAFVQERQKVHCLNTLFSKLQINQSIIFCNSTQRVELLAKKITELGYCCYYIHAKMAQAHRNRVFHDFRQGLCRNLVCSDLFTRGIDVQAVNVVINFDFPRMAETYLHRIGRSGRFGHLGIAINLITYEDRFDLHRIEKELGTEIKPIPKVIDPALYVANVGASVGDTCNNSDLNNSANEEGNVSK
